Reference: patent publication US20140329706A1, “AFFINITY TAGS, AND RELATED AFFINITY LIGANDS, ENGINEERED PROTEINS, MODIFIED SUPPORTS, COMPOSITIONS, METHODS AND SYSTEMS” (CALIFORNIA INSTITUTE OF TECHNOLOGY, priority 2013, published 2014)
No constants are given. Whether binding was seen depends on the method and setting. Some entries that bind do so weakly or less than the wild type. For some assays here: Sequences can lack the tags named with a protein.

Amino acid sequences for entries named in this document (tags omitted). Residues count along the entry.
UniProt Q62108, residues 160-246: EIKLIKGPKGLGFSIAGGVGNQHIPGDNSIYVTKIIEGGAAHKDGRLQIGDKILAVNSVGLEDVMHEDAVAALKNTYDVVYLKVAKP

What was measured:
PDZ2 domain of PSD-95 [1] = target: PDZ2 domain of PSD-95 (UniProt Q62108); experiment: affinity chromatography on PSD-95 PDZ2 resin, SIESDV peptide elution, SDS-PAGE
PDZ2 domain of PSD-95 [2] = target: PDZ2 domain of PSD-95 (UniProt Q62108); experiment: free SIESDV peptide bound to eluted PSD-95 PDZ2, removed by buffer exchange

Binder	binding (PDZ2 domain of PSD-95 [1])	binding (PDZ2 domain of PSD-95 [2])
EKLSSIESDV (peptide, not shown: large carriers) [THX-…]	binds	–
SSIESDV (peptide, not shown: large carriers) [THX-SSIESDV]	binds	–
SIESDV (peptide, not shown: large carriers) [THX-SIESDV]	binds	–
IESDV (peptide, not shown: large carriers) [THX-IESDV]	binds	–
EKLSSIESDV (peptide, not shown: a dimerising Fc or GST) [GST-…]	binds	–
SSIESDV (peptide, not shown: a dimerising Fc or GST) [GST-SSIESDV]	binds	–
SIESDV (peptide, not shown: a dimerising Fc or GST) [GST-SIESDV]	binds	–
IESDV (peptide, not shown: a dimerising Fc or GST) [GST-IESDV]	binds	–
SSIESDV (peptide, not shown: large carriers) [DasherGFP with C-terminal Type A PDZ affinity tag (seven C-terminal amino acids of the NR2B tail)]	binds	–
SSIESDV (peptide, not shown: large carriers) [LacZ with C-terminal Type A PDZ affinity tag (seven C-terminal amino acids of the NR2B tail)]	binds	–
SIESDV [SIESDV peptide]	–	binds
